{
  "sequences": {"note": "Protein sequences, listed by entry. Tags and fused reporters are not part of them. Lines headed by an entry give the natural chain unless they say otherwise; changes in a name come on top. Residues count along the entry.", "UniProt O95831": "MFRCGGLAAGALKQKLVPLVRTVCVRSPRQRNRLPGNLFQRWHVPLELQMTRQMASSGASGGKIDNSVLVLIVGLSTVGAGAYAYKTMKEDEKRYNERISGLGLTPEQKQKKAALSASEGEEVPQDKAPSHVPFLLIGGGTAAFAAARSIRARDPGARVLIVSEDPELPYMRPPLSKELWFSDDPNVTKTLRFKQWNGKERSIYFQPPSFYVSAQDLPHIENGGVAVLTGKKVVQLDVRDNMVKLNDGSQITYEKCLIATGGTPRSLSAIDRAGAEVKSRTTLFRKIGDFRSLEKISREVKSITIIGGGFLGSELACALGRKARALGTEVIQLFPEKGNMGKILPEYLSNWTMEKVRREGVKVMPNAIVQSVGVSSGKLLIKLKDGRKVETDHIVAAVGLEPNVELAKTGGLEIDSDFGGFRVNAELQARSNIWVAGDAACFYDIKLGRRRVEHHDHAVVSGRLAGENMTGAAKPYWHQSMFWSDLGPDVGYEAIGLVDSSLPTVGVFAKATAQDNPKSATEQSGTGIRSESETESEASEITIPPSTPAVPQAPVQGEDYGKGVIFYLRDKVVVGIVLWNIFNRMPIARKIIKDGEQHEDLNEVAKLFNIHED", "UniProt P38646, residues 47-679": "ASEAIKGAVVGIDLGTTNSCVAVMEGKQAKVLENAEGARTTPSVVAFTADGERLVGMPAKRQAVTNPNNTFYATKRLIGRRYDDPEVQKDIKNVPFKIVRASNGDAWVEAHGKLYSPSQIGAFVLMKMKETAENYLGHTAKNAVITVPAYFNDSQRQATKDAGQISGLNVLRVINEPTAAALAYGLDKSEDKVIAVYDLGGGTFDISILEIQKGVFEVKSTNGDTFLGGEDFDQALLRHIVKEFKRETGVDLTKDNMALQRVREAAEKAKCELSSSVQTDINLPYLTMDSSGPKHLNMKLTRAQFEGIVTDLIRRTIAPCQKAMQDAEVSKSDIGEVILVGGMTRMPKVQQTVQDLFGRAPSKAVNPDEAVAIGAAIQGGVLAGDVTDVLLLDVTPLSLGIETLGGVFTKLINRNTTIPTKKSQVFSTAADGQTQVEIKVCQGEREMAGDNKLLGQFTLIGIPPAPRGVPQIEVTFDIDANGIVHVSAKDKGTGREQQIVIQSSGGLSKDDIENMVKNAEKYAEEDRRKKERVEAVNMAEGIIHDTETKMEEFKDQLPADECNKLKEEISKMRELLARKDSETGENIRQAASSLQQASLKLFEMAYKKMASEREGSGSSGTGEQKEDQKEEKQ"},
  "source": "paper PMC6351035",
  "target": "fAIF carrying the C-terminal fragment of YFP (YC-AIF) (UniProt O95831)",
  "experiment": "split reporter; BiFC with split YFP in co-transfected U87MG cells, confocal microscopy 24 h post-transfection",
  "note": "These are yes or no findings as the source states them, for the method shown. Binding seen in cells or lysates may run through a third protein. A result given as binding can be weak or reduced; the word gives no strength.",
  "data": [
    {"substance": "mortalin bound to the N-terminal fragment of YFP (Mort-YN) (from UniProt P38646 47-679)", "values": [
      {"measurement": "binding", "value": "binds"}
    ]}
  ]
}
